Results are given in words; binding and its absence hold for the method and conditions named. In cells and extracts the contact can be indirect.

Protein sequences, listed by entry. Tags and fused reporters are not part of them.
UniProt Q13464: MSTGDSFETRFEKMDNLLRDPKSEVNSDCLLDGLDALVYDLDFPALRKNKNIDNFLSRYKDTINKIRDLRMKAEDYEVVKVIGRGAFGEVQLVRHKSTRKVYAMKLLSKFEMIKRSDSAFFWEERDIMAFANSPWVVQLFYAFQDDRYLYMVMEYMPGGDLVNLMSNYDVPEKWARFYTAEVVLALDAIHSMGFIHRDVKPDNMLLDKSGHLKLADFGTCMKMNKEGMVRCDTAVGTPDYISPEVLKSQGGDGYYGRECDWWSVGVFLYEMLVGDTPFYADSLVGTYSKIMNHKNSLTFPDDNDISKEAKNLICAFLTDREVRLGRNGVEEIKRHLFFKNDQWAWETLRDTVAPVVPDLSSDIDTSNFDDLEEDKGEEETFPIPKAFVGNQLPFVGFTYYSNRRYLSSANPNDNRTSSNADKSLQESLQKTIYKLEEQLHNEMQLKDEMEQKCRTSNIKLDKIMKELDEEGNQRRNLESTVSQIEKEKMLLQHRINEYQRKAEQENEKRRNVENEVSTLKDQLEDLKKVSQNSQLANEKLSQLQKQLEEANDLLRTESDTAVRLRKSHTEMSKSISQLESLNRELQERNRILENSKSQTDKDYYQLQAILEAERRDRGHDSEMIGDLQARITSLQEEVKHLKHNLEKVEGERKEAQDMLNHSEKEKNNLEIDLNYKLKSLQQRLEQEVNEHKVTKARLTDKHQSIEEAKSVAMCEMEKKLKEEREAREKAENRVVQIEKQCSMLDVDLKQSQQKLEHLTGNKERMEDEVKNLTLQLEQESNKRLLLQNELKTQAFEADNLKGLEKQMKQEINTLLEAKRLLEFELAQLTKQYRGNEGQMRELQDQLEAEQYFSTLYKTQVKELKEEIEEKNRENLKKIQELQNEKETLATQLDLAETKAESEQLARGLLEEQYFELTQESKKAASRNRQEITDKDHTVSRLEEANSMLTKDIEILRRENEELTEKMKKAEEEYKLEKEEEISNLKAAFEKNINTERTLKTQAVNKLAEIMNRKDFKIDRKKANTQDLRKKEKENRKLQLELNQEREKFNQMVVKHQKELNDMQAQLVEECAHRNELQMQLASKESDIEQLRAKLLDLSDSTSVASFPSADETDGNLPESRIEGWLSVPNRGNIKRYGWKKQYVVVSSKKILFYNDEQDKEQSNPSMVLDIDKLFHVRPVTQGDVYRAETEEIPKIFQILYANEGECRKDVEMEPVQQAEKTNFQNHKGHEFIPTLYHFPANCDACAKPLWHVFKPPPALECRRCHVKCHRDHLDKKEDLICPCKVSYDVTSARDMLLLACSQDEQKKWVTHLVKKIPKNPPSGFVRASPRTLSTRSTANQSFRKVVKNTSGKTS

This assay has as its target Rho-associated coiled-coil kinase 1 (human (endogenous in HEK-293T)) (UniProt Q13464). Briefly: co-IP; HEK-293T lysate (Pierce IP lysis buffer); anti-ROCK1 antibody overnight at 4 °C, protein A/G agarose; immunoblotting.

B1: cation-dependent mannose-6-phosphate receptor (receptor, UniProt P20645 27-277)
chain: TEEKTCDLVGEKGKESEKELALVKRLKPLFNKSFESTVGQGSDTYIYIFRVCREAGNHTSGAGLVQINKSNGKETVVGRLNETHIFNGSNWIMLIYKGGDEYDNHCGKEQRRAVVMISCNRHTLADNFNPVSEERGKVQDCFYLFEMDSSLACSPEISHLSVGSILLVTFASLVAVYVVGGFLYQRLVVGAKGMEQFPHLAFWQDLGNLVADGCDFVCRSKPRNVPAAYRGVGDDQLGEESEERDDHLLPM
Regarding B1, the binding result is on record as “no binding”.

Values taken from paper PMC11533276.
